Consider 57 molecules from the supplement of paper PMC12578635.

The other results are listed elsewhere or left out. Cut-off read from the data, not from the text of the source: active = 150% or more and inactive = the rest. Many values rest on one well or one pass, so single values are uncertain.

The test system of the assay is Staphylococcus aureus JE2-lux inside RAW 264.7 macrophages. The experiment in a line: intracellular bacterial bioluminescence relative to DMSO vehicle; higher = higher intracellular bacterial metabolic activity. The following applies: 10 µM; treatment time 4 h; gentamicin 50 µg/ml.
With `CCOC(=O)C(C)Sc1nc2c(c(=O)[nH]c(=O)n2C)n1CCc1ccccc1` (configuration not stated), the intracellular bacterial bioluminescence was inactive: 94.8%. For `COc1ccc(C2CC(c3cccc(NS(C)(=O)=O)c3)=NN2C(=O)c2ccco2)cc1` (configuration not stated) the value was inactive: 96.7%; for `CCOC(=O)c1c(C)oc2c1C1=NC(C)(C)CN1C=N2`, inactive: 72.4%. For `O=C(CSc1nnc2c(n1)-c1cccc3cccc-2c13)NNC(=O)c1ccc(Cl)cc1` the value was inactive: 110%; for `CN(C)c1cccc(C(=O)Nc2nnc(-c3ccccc3)[nH]2)c1`, inactive: 97.9%; for `CCCc1cc(=O)[nH]c2nnc(SCc3ccc(C(=O)OC)o3)n12`, inactive: 112%.

On to `COC(=O)c1cc2c(cc1NC(=O)c1cc3cccc(OC)c3oc1=O)OCCO2`, for which the intracellular bacterial bioluminescence was inactive: 113%.

For the molecule `Cn1/c(=N\C(=O)CCS(=O)(=O)c2ccc(F)cc2)sc2c(Cl)ccc(Cl)c21`, the intracellular bacterial bioluminescence was inactive: 67.5%. For `Cc1cc2cc3c(N)c(C(=O)N4CCc5ccccc54)sc3nc2cc1C` the value was inactive: 97.5%. For `CC(=O)Nc1ccc(NC(=O)CN2CCC3(CC2)NC(=O)N(C)C3=O)cc1` the value was inactive: 124%; for `COc1ccccc1N1CC(C)Cn2c1nc1c2c(=O)n(CC(N)=O)c(=O)n1C` (configuration not stated), inactive: 106%; for `COc1cccc(NC(=O)c2sc3nc4c(c(-c5cccs5)c3c2N)CCCCC4)c1`, inactive: 107%. For `O=C(CNC(=O)c1ccccc1)N/N=C1\C(=O)Nc2ccc([N+](=O)[O-])cc21` the value was inactive: 108%; for `COc1cccc(C(=O)COC(=O)c2cc(O)nc3ccccc23)c1`, inactive: 103%. For the molecule `Cc1nc(N2CCN(c3ccccc3)CC2)[nH]c(=O)c1CCC(C)C`, the intracellular bacterial bioluminescence is inactive: 111%. Turning to `COC(=O)c1c(NC(=O)CCc2ccccc2)sc2c1CC(C)(C)NC2(C)C`, the intracellular bacterial bioluminescence was inactive: 85.9%. `Cc1sc2ncnc(NC3CCCCC3)c2c1S(=O)(=O)N1CCCCC1`: the intracellular bacterial bioluminescence is inactive: 44.3%. `CCOc1cccc(-c2csc(NC(=O)c3cnc(SC)nc3)n2)c1`: the intracellular bacterial bioluminescence was inactive: 91.7%. For `COc1ccc(C2CC(c3cccs3)=NN2C(=O)COc2cccc3c2CCNC3=O)cc1` (configuration not stated) the value was inactive: 65.3%.

For the molecule `CC(NC(=O)CC1Nc2cccc3cccc(c23)NC1=O)c1ccccc1` (configuration not stated), the intracellular bacterial bioluminescence is inactive: 74%. With `COc1cccc(-c2noc(-c3cccn4c(=O)c5ccccc5nc34)n2)c1OC`, the intracellular bacterial bioluminescence is inactive: 111%. With `CN(C(=O)c1ccc(Cn2cccn2)o1)c1nc2c(s1)CCc1c-2cnn1C` the figure was inactive: 81.5%; with `O=C1NC2(CCN(CC(=O)N3CCCC4CCCCC43)CC2)Nc2ccccc21` (configuration not stated), inactive: 99.1%; with `Cc1cc(C)c2c(O)nc(SCC(=O)c3ccc(F)c(C)c3)nc2n1`, inactive: 59.7%. With `CC(=O)Nc1cc2c(cc1NC(=O)c1ncoc1-c1cccc(F)c1)OCCO2`, the intracellular bacterial bioluminescence was inactive: 89.8%. Take `CCn1c(SCC(=O)NNC(=O)c2ccc(C)cc2)nc2c1c(=O)n(C)c(=O)n2C`: the intracellular bacterial bioluminescence is inactive: 77.2%.

With `Cc1cccc2cc(C#N)c(SCC(=O)Nc3ccccc3-c3ccccc3)nc12`, the intracellular bacterial bioluminescence is inactive: 71.1%. For `COc1ccc(-c2cn3nc(SCC(=O)Nc4ccc(NC(C)=O)cc4)ccc3n2)cc1` the value was inactive: 87.6%; for `Cn1c(SCC(=O)Nc2ccc3c(c2)OCO3)nc2c(-c3ccccc3)csc2c1=O`, inactive: 96.3%; for `O=C(Nc1sc2c(c1C(=O)NC1CCS(=O)(=O)C1)CCCC2)c1ccccc1Cl` (configuration not stated), inactive: 95.5%. With `CN(C)S(=O)(=O)N1CCC(n2nc(C3CC3)ccc2=O)CC1` the figure was inactive: 85.9%. Regarding `Cc1cc2ccccc2n2c(=O)n(CC(C)NC(=O)CC(C)n3cncn3)nc12` (configuration not stated), the intracellular bacterial bioluminescence was inactive: 115%. Consider `CC(=O)Nc1cccc(NC(=O)CSc2nc(=O)n(Cc3ccco3)c3c2CCC3)c1`, for which the intracellular bacterial bioluminescence was inactive: 93.3%.

Consider `Cc1ccc(/C=C(\C#N)C(=O)Nc2ccccc2O)o1`, for which the intracellular bacterial bioluminescence is inactive: 87.3%. Regarding `CC(=O)c1cccc(NC(=O)CSc2ccc(-c3ccccn3)nn2)c1`, the intracellular bacterial bioluminescence was inactive: 74.2%. For `COc1ccc2oc(=O)c(C(=O)Nc3cccc(-c4cn5cccc(C)c5n4)c3)cc2c1` the value was inactive: 70.4%.

With `CNc1ncccc1CN1CCc2cc(OC)c(OC)cc2C1c1ccccc1` (configuration not stated), the intracellular bacterial bioluminescence was inactive: 56%. In the case of `Cn1c(=O)[nH]c(=O)c2[nH]c(CN3CCN(c4ccc(F)cc4)CC3)nc21`, the intracellular bacterial bioluminescence is inactive: 99.5%.

As to `CC(=O)N1CCCc2ccc(NC(=O)C(=O)NCCc3ccc(S(N)(=O)=O)cc3)cc21`, the intracellular bacterial bioluminescence is inactive: 107%. As for `CCOc1ccc2nc(-n3nc(C)c4c3NC(=O)CC4c3cc(Br)ccc3OC)sc2c1` (configuration not stated), the intracellular bacterial bioluminescence was inactive: 109%.

For the molecule `COc1ccc(CN(Cc2cc3cc(C)ccc3[nH]c2=O)C(=O)N2CCCC2)cc1`, the intracellular bacterial bioluminescence was inactive: 88.3%.

As to `Cc1ccc2c(c1)n(Cc1ccc(Cl)cc1)c(=O)c1nc(C(=O)NCCN3CCCC3)nn12`, the intracellular bacterial bioluminescence was inactive: 91.2%.

Consider `COc1cccc(Oc2coc3cc(OCC(N)=O)ccc3c2=O)c1`, for which the intracellular bacterial bioluminescence was inactive: 122%.

Consider `Cc1cc2ccccc2c(=O)n1CC(=O)NCC1COc2ccccc2O1` (configuration not stated), for which the intracellular bacterial bioluminescence was inactive: 9.05%. For `O=C(NNc1nc2c(F)cccc2s1)c1nc2ccccc2s1` the value was inactive: 113%; for `Cc1cc(NC(=O)c2cc(=O)c3ccccc3o2)no1`, inactive: 49.2%. Take `Cc1ccnc(NC(=O)C2CCN(S(=O)(=O)c3c(C)nn(CC(=O)N4CCCC4)c3C)CC2)c1`: the intracellular bacterial bioluminescence was inactive: 10.6%. Regarding `CCn1nc(C)c2[nH]c(=S)n(Cc3ccccc3Cl)c(=O)c21`, the intracellular bacterial bioluminescence is inactive: 75%. As for `CCn1c(SCC(=O)c2ccc(C)cc2)nc2cccnc21`, the intracellular bacterial bioluminescence is inactive: 73.8%. With `CC(=O)N1CCc2nc(NC(=O)c3cccs3)sc2C1` the figure was inactive: 117%; with `Cc1c(C)n2c(SCC(=O)NC3CCCCC3)nnc2[nH]c1=O`, inactive: 89.2%.

For the molecule `CC(=O)N1CCc2c(sc(NC(=O)c3cc(C)ccc3C)c2C#N)C1`, the intracellular bacterial bioluminescence was inactive: 143%. For `CSc1cccc(NC(=O)CSc2nc3c(oc4ccccc43)c(=O)n2Cc2ccco2)c1`, the intracellular bacterial bioluminescence is inactive: 123%.

For the molecule `Cc1ccc(Cn2c(SCc3cc(=O)n4cc(Cl)ccc4n3)nc3ccsc3c2=O)cc1`, the intracellular bacterial bioluminescence is inactive: 91.7%. Turning to `C=CCn1c2c(c(=O)[nH]c1=O)C(c1cccc(C)c1)C1=C(COC1=O)N2` (configuration not stated), the intracellular bacterial bioluminescence was inactive: 108%.

On to `O=C(O)c1cccc(Cn2c(Cl)c(/C=N/NC(=O)c3ccncc3)sc2=O)c1`, for which the intracellular bacterial bioluminescence was inactive: 101%. With `CC(C)c1nc2ccccc2c2nnc(SCC(=O)Nc3ccc(F)cc3)n12` the figure was inactive: 107%.
